Experimental data reported in PMC8166876.
Results are given in words; binding and its absence hold for the method and conditions named. In cells and extracts the contact can be indirect. Some entries that bind do so weakly or less than the wild type. Values belong to the binder of their own block, whether it stands above or below them.

Experiments:
Assay in all cases: co-IP; FHC-PBLD cell lysate (1000 μg) incubated with 2 μg of anti-PBLD, anti-IKKβ or anti-IKKα antibody or control IgG and 20 μL protein A/G magnetic beads overnight at 4 °C; washed three times with lysis buffer; western blot
[1] = target: T1, IKKβ (human (endogenous in FHC)) (UniProt O14920)
T1 sequence: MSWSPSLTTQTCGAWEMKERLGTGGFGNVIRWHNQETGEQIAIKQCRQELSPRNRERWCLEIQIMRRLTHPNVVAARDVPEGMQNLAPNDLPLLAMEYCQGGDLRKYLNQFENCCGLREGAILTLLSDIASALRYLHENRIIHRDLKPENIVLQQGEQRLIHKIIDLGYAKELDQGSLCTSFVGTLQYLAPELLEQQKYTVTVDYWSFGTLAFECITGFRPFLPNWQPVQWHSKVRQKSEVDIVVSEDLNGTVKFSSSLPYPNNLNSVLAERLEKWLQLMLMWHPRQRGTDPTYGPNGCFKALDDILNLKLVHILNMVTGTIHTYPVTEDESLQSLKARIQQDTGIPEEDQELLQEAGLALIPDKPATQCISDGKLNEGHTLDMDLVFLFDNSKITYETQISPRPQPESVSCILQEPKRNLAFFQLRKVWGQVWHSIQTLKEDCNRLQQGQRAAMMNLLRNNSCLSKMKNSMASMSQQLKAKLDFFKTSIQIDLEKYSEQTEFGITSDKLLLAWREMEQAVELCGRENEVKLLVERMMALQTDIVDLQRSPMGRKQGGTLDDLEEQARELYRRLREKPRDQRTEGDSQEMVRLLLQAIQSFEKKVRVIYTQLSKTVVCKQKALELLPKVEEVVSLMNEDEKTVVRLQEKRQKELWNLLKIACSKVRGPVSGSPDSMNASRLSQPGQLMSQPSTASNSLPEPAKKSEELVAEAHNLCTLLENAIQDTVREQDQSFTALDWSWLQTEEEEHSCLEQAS

[2] = target: T2, IKKα (human (endogenous in FHC)) (UniProt O15111)
T2 sequence: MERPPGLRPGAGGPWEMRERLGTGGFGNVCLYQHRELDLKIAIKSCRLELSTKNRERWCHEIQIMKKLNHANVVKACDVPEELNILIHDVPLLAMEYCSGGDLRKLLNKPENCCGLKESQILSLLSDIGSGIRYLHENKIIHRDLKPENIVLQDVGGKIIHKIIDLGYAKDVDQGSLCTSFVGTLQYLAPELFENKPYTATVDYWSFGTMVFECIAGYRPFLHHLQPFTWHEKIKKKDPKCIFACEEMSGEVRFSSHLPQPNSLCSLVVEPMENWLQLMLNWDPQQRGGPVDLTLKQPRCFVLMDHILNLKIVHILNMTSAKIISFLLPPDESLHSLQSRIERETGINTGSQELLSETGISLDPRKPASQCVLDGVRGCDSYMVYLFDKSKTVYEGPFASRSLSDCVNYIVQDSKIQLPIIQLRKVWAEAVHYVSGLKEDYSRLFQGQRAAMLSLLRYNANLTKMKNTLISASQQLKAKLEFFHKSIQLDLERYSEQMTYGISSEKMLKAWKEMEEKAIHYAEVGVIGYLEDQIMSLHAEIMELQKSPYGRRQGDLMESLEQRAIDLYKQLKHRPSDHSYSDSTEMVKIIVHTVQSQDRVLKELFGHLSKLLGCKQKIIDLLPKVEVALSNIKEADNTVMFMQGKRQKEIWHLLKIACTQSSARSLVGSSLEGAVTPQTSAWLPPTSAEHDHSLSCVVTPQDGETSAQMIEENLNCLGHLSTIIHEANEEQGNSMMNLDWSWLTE

[3] = target: T3, Phenazine biosynthesis-like domain-containing protein (PBLD) (UniProt P30039)
T3 sequence: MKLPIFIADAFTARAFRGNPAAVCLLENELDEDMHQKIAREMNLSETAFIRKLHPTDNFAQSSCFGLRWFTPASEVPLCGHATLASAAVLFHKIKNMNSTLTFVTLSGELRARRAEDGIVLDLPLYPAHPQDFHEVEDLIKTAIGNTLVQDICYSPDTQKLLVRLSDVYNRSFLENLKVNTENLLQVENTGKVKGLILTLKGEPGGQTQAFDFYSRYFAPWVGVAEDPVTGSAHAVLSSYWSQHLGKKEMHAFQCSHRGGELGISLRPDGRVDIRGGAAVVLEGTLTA

binding [1]: binds
binding [2]: binds
B1: Phenazine biosynthesis-like domain-containing protein (PBLD) (protein, UniProt P30039 1-288)
chain: T3 sequence

binding [3]: binds
B2: IKKβ (protein, UniProt O14920 1-756)
chain: T1 sequence
